Test results published in paper PMC8914023.
No constants are given. Whether binding was seen depends on the method and setting.

By UniProt entry, the sequences of proteins in these tests, tags left out.
UniProt C4LVG4: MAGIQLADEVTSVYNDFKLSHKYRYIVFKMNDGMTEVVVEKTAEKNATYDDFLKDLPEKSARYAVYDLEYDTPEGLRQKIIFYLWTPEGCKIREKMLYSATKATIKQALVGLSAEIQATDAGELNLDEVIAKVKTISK

Target: Entamoeba histolytica actophorin (EhActo) (Entamoeba histolytica) (UniProt C4LVG4)
Test: SEC; gel filtration on G75 superdex, second step of the purification of EhActo; both purified

- binding: no binding
Substance: Entamoeba histolytica actophorin (EhActo) (from UniProt C4LVG4 1-138)
